The list does not hold the whole screen: it gathers tests that were run many times, whatever their T/C, doses with no T/C, and many T/C values between a quarter and a half above the control. Other doses and runs of a compound stand elsewhere. T/C is the treated group as % of the vehicle group. Some entries give survivors of the animals treated and no T/C: the source holds a T/C of zero for them, seemingly a mark for toxic or unscored doses. Some doses without a T/C left all or most animals alive at the check, yet need not have been tolerated: the source hardly ever lists a survival T/C far under the control, and the zero likely stands for such cases as well. Survivors were counted at the toxicity check, usually on the fifth day, unless a day is given; later deaths do not show. Schedules are NCI's codes, taken here to give the interval after Q, in days (D) or hours (H), and the number of doses after X. Some entries were tested several times; the values are given in rising order. Some schedule codes hold Z or #, which are not explained here. For survival time, the PubChem record calls one and a half times the control and up active, and a quarter to a half above the control has no call in these data; cut-offs in other NCI protocols can differ. Some T/C values are followed by the survivors on the day toxicity was checked, most often the fifth; without a count, all were alive then.
Tested on: L1210 leukemia ip in BDF1 mice, survival T/C
Assay: NCI In Vivo Anticancer Drug Screen. Data for tumor model L1210 Leukemia (intraperitoneal) in B6D2F1 (BDF1) mice
Settings: higher T/C = longer survival
[1] = T/C endpoint: mean survival time, dose: 400.0 mg/kg/injection, schedule: Q04DX003 (ip), vehicle: saline
[2] = T/C endpoint: mean survival time, dose: 100.0 mg/kg/injection, schedule: Q01DX009 (ip), vehicle: saline with Tween-80
[3] = T/C endpoint: mean survival time, dose: 200.0 mg/kg/injection, schedule: Q01DX009 (ip), vehicle: saline with Tween-80
[4] = T/C endpoint: mean survival time, dose: 400.0 mg/kg/injection, schedule: Q01DX009 (ip), vehicle: saline with Tween-80
[5] = T/C endpoint: mean survival time, dose: 400.0 mg/kg/injection, schedule: Q01DX009 (ip), vehicle: saline
[6] = T/C endpoint: mean survival time, dose: 200.0 mg/kg/injection, schedule: Q04DX003 (ip), vehicle: acetone
[7] = T/C endpoint: mean survival time, dose: 400.0 mg/kg/injection, schedule: Q04DX003 (ip), vehicle: acetone
[8] = T/C endpoint: mean survival time, dose: 400.0 mg/kg/injection, schedule: Q04DX003 (ip), vehicle: Klucel (hydroxypropylcellulose) (HPC)
[9] = T/C endpoint: mean survival time, dose: 400.0 mg/kg/injection, schedule: Q01DX001 (ip), vehicle: saline
[10] = T/C endpoint: mean survival time, dose: 100.0 mg/kg/injection, schedule: Q04DX003 (ip), vehicle: saline with Tween-80
[11] = T/C endpoint: mean survival time, dose: 200.0 mg/kg/injection, schedule: Q04DX003 (ip), vehicle: saline with Tween-80
[12] = T/C endpoint: mean survival time, dose: 400.0 mg/kg/injection, schedule: Q04DX003 (ip), vehicle: saline with Tween-80
[13] = T/C endpoint: mean survival time, dose: 200.0 mg/kg/injection, schedule: Q04DX003 (ip), vehicle: Klucel (hydroxypropylcellulose) (HPC)
[14] = T/C endpoint: mean survival time, dose: 50.0 mg/kg/injection, schedule: Q01DX009 (ip), vehicle: Klucel (hydroxypropylcellulose) (HPC)

Cc1ccccc1C(O)C(Cl)(Cl)Cl (stereo not given)
T/C (T/C endpoint: median survival time, dose: 100.0 mg/kg/injection, schedule: Q04DX003 (ip), vehicle: Klucel (hydroxypropylcellulose) (HPC)): 130 % of control | survivor count (T/C endpoint: median survival time, dose: 800.0 mg/kg/injection, schedule: Q04DX003 (ip), vehicle: Klucel (hydroxypropylcellulose) (HPC)): 8 of 8

CN(C)/C=N/N1CCCCCC1
survivor count (T/C endpoint: mean survival time, dose: 200.0 mg/kg/injection, schedule: Q04DX003 (ip), vehicle: saline): 1 of 6 | survivor count [1]: 1 of 6

N#CC(C#N)C1c2ccccc2Nc2ccccc21
survivor count [2]: 0 of 3 | survivor count [3]: 0 of 3

Cc1ccc(S(=O)(=O)NC(=O)Nc2cc(Cl)c(Cl)cc2C)cc1
T/C [3]: 126 % of control | survivor count [4]: 0 of 3 and 2 of 6 | survivor count [5]: 0 of 3

CCOC(=O)C1CC(Cl)c2c(ccc3cc(OC)ccc23)N1 (stereo not given)
survivor count (T/C endpoint: mean survival time, dose: 100.0 mg/kg/injection, schedule: Q01DX001 (ip), vehicle: carboxymethylcellulose (CMC)): 2 of 6

O=C(Nc1ccc(Cl)cc1Cl)Nc1ccc(Cl)cc1Cl
survivor count (T/C endpoint: mean survival time, dose: 400.0 mg/kg/injection, schedule: Q04DX002 (ip), vehicle: Klucel (hydroxypropylcellulose) (HPC)): 3 of 3

OCCOc1cc(Cl)c(Cl)cc1Cl
survivor count (T/C endpoint: mean survival time, dose: 200.0 mg/kg/injection, schedule: Q01DX009 (ip), vehicle: carboxymethylcellulose (CMC)): 1 of 3 and 5 of 6 | survivor count [4]: 5 of 6 | survivor count (T/C endpoint: mean survival time, dose: 400.0 mg/kg/injection, schedule: Q04DX002 (ip), vehicle: carboxymethylcellulose (CMC)): 0 of 3 and 3 of 6

O=C1C=CC(=O)N1CN1CCOCC1
survivor count (T/C endpoint: mean survival time, dose: 100.0 mg/kg/injection, schedule: Q04DX003 (ip), vehicle: acetone): 0 of 6 | survivor count [6]: 0 of 6 | survivor count [7]: 0 of 6

CCOc1ccc(Nc2c3ccccc3nc3ccccc23)cc1
T/C (T/C endpoint: mean survival time, dose: 44.0 mg/kg/injection, schedule: Q01DX009 (ip), vehicle: saline with Tween-80): 139 % of control | survivor count [2]: 6 of 6 | survivor count (T/C endpoint: mean survival time, dose: 150.0 mg/kg/injection, schedule: Q01DX009 (ip), vehicle: saline with Tween-80): 4 of 6

CS(=O)(=O)OCC(=O)O
survivor count (T/C endpoint: mean survival time, dose: 400.0 mg/kg/injection, schedule: Q01DX001 (ip), vehicle: Klucel (hydroxypropylcellulose) (HPC)): 0 of 6

O=C(/C=C/c1cccc(Br)c1)c1ccc(Cl)cc1
survivor count (T/C endpoint: mean survival time, dose: 400.0 mg/kg/injection, schedule: Q04DX003 (ip), vehicle: other): 6 of 6

CCCCSP(=S)(Cc1ccccc1)SCCCC
survivor count [8]: 0 of 6

Nc1ccc2cc(O)ccc2c1
survivor count [2]: 3 of 3 | survivor count [3]: 0 of 3

O=C(CCCc1ccc(N(CCCl)CCCl)cc1)Nc1ncccn1
survivor count (T/C endpoint: mean survival time, dose: 24.0 mg/kg/injection, schedule: Q01DX015 (ip), vehicle: carboxymethylcellulose (CMC)): 0 of 6 | T/C (T/C endpoint: mean survival time, dose: 50.0 mg/kg/injection, schedule: Q01DX001 (ip), vehicle: saline): 128 % of control [4 of 6 alive]

C[N+](C)(C)Cc1ccccc1C[N+](C)(C)C
survivor count [9]: 0 of 4

C=CC(=C)CCC=C(C)C
survivor count (T/C endpoint: mean survival time, dose: 100.0 mg/kg/injection, schedule: Q04DX003 (ip), vehicle: saline): 6 of 6

CN(C)CCCC1(c2cccc(Cl)c2)SC(C)(C)c2ccccc21 (stereo not given)
survivor count (T/C endpoint: mean survival time, dose: 100.0 mg/kg/injection, schedule: Q01DX009 (ip), vehicle: saline): 0 of 6 | survivor count (T/C endpoint: mean survival time, dose: 200.0 mg/kg/injection, schedule: Q01DX009 (ip), vehicle: saline): 0 of 6 | survivor count [5]: 0 of 6

CCC(C)NC(=O)Nc1cccc(Cl)c1C (stereo not given)
survivor count [3]: 6 of 6

NC(N)=NN=C(C1CC1)C1CC1
survivor count (T/C endpoint: mean survival time, dose: 480.0 mg/kg/injection, schedule: Q01DX Z (ip), vehicle: carboxymethylcellulose (CMC)): 6 of 6 | survivor count (T/C endpoint: mean survival time, dose: 960.0 mg/kg/injection, schedule: Q01DX Z (ip), vehicle: carboxymethylcellulose (CMC)): 0 of 6

C=C(C)CSC(=S)NNc1ccccc1
survivor count (T/C endpoint: mean survival time, dose: 335.0 mg/kg/injection, schedule: Q01DX009 (ip), vehicle: saline with Tween-80): 3 of 6

CCCCCCCCNCCNCCCCCCCC
survivor count (T/C endpoint: mean survival time, dose: 100.0 mg/kg/injection, schedule: Q01DX001 (ip), vehicle: saline): 2 of 4 | survivor count (T/C endpoint: mean survival time, dose: 200.0 mg/kg/injection, schedule: Q01DX001 (ip), vehicle: saline): 0 of 4 | survivor count [9]: 0 of 4

CC(C)(C)CC(C)(C)NCc1ccccc1
survivor count [10]: 6 of 6 | survivor count [11]: 0 of 6 | survivor count [12]: 0 of 6

ClCc1cc(Cl)c(Cl)cc1Cl
survivor count [6]: 5 of 6 | survivor count (T/C endpoint: mean survival time, dose: 225.0 mg/kg/injection, schedule: Q01DX009 (ip), vehicle: acetone): 1 of 6 | survivor count (T/C endpoint: mean survival time, dose: 335.0 mg/kg/injection, schedule: Q01DX009 (ip), vehicle: acetone): 1 of 6 | survivor count [7]: 0 of 6

O=[N+]([O-])c1cccnc1Cl
survivor count [8]: 0 of 6

O=C(C[n+]1ccc2c([N+](=O)[O-])cccc2c1)c1ccccc1
survivor count [13]: 1 of 6 | survivor count [8]: 1 of 6

CC(=O)OC1CC(n2cc(C)c(=O)[nH]c2=O)OC1COP(=O)(N1CC1)N1CC1 (stereo not given)
survivor count (T/C endpoint: mean survival time, dose: 100.0 mg/kg/injection, schedule: Q04DX002 (ip), vehicle: saline): 2 of 4

C1=CN2CCCN3C=CC=c4ccc(c2c43)=C1
survivor count (T/C endpoint: mean survival time, dose: 30.0 mg/kg/injection, schedule: Q01DX009 (ip), vehicle: saline): 3 of 6 | survivor count (T/C endpoint: mean survival time, dose: 75.0 mg/kg/injection, schedule: Q01DX001 (ip), vehicle: saline): 0 of 6 | survivor count (T/C endpoint: mean survival time, dose: 150.0 mg/kg/injection, schedule: Q01DX001 (ip), vehicle: saline): 0 of 6 | survivor count (T/C endpoint: mean survival time, dose: 300.0 mg/kg/injection, schedule: Q01DX001 (ip), vehicle: saline): 0 of 6

CC[N+](C)(CC)c1ccc(/C=N\N(C)C)cc1
survivor count [14]: 0 of 3 | survivor count (T/C endpoint: mean survival time, dose: 100.0 mg/kg/injection, schedule: Q01DX009 (ip), vehicle: Klucel (hydroxypropylcellulose) (HPC)): 0 of 3 | survivor count (T/C endpoint: mean survival time, dose: 200.0 mg/kg/injection, schedule: Q01DX009 (ip), vehicle: Klucel (hydroxypropylcellulose) (HPC)): 0 of 3

COC1(OC)C2CCC1C(O)C2 (stereo not given)
survivor count [5]: 3 of 6

CCC1([N+](=O)[O-])COCOC1
survivor count (T/C endpoint: mean survival time, dose: 50.0 mg/kg/injection, schedule: Q04DX003 (ip), vehicle: Klucel (hydroxypropylcellulose) (HPC)): 3 of 6 | survivor count (T/C endpoint: mean survival time, dose: 100.0 mg/kg/injection, schedule: Q04DX003 (ip), vehicle: Klucel (hydroxypropylcellulose) (HPC)): 0 of 6

COc1ccc(/C=C2/CCOC2=O)cc1
survivor count (T/C endpoint: mean survival time, dose: 25.0 mg/kg/injection, schedule: Q04DX002 (ip), vehicle: Klucel (hydroxypropylcellulose) (HPC)): 0 of 3 | survivor count (T/C endpoint: mean survival time, dose: 50.0 mg/kg/injection, schedule: Q04DX002 (ip), vehicle: Klucel (hydroxypropylcellulose) (HPC)): 0 of 3

O=S1(=O)CC(Cl)C1
survivor count (T/C endpoint: mean survival time, dose: 400.0 mg/kg/injection, schedule: Q01DX001 (ip), vehicle: carboxymethylcellulose (CMC)): 1 of 4

O=C(c1ccc([N+](=O)[O-])cc1)C(Br)C(Br)c1ccnc2ccccc12 (stereo not given)
survivor count [10]: 6 of 6 | survivor count [11]: 6 of 6 | survivor count [12]: 6 of 6

Clc1ccccc1C=NCC1CCC(CN=Cc2ccccc2Cl)CC1 (stereo not given)
survivor count [2]: 6 of 6 | survivor count [3]: 3 of 3 | survivor count (T/C endpoint: mean survival time, dose: 200.0 mg/kg/injection, schedule: Q04DX002 (ip), vehicle: saline with Tween-80): 3 of 3 | survivor count (T/C endpoint: mean survival time, dose: 400.0 mg/kg/injection, schedule: Q04DX002 (ip), vehicle: saline with Tween-80): 3 of 3

Cc1cc(N(CCOS(C)(=O)=O)CCOS(C)(=O)=O)ccc1C=Nc1ccc(-c2csc(Cc3ccccc3)n2)cc1
T/C [14]: 141 % of control

COc1cc(OC)cc(C(N)=O)c1
survivor count [13]: 6 of 6

CNCCC(CNC1=NCCN1)(c1cccc2ccccc12)C(C)C (stereo not given)
survivor count [13]: 0 of 6 | survivor count [8]: 0 of 6

CC(CN)N(C)C (stereo not given)
survivor count [1]: 1 of 6
